This passage reports binding results from paper PMC4901263.

Assay [1] addresses Flag-NS5A (from HCV-JFH1, genotype 2a) (hepatitis C virus JFH1 (genotype 2a)). Put plainly: co-IP; HEK293T cells co-transfected with tagged CIDEB and a tagged HCV protein; lysis buffer 50 mM Tris pH 7.4, 150 mM NaCl, 0.5% NP-40, 1.0 mM EDTA; IP with anti-Flag, anti-HA or anti-GFP antibody and protein A/G beads at 4 °C; blot with anti-HA, anti-Flag or anti-NS3.
In assay [2] the target is NS5A with domain III deleted, in pGBKT7 (hepatitis C virus genotype 2a (strain not named)). Nature of the assay: two-hybrid; Yeast mating: AH109 with NS5A constructs in pGBKT7, Y187 with CIDEB constructs in pGADT7; growth on SD/-Trp/-Leu/-His/-Ade and SD/-Trp/-Leu/-His with 2 mM 3-AT, 30 °C, 5 to 8 d.
For assay [3], the target named is NS5A with domain II deleted, in pGBKT7 (hepatitis C virus genotype 2a (strain not named)). The assay is described as above.
For assay [4], the target named is NS5A-EGFP of HCV-Jc1EGFP (hepatitis C virus Jc1 (adapted HCV-Jc1EGFP)). Nature of the assay: co-IP; HCV-Jc1EGFP-infected Huh7.5.1 cells transfected with pReceiver-Flag-CIDEB; exogenous Flag-CIDEB with NS5A-EGFP of the virus.
For assay [5], the target named is Flag-Core (hepatitis C virus (strain not stated)). Put plainly: co-IP; HEK293T cells co-transfected with tagged CIDEB and a tagged HCV protein; lysis buffer 50 mM Tris pH 7.4, 150 mM NaCl, 0.5% NP-40, 1.0 mM EDTA; IP with anti-Flag, anti-HA or anti-GFP antibody and protein A/G beads at 4 °C; blot with anti-HA, anti-Flag or anti-NS3.

No constants are given. Whether binding was seen depends on the method and setting. For part of these data: Binding calls can cover weak binding; strength is not graded here. Sequences can lack the tags named with a protein. For part of these data: Binding seen in cells or lysates may run through a third protein.

B1: HA-CIDEB (Mus musculus) (protein, UniProt O70303 1-219)
chain: MEYLSAFNPNGLLRSVSTVSSELSRRVWNSAPPPQRPFRVCDHKRTVRKGLTAASLQELLDKVLETLLLRGVLTLVLEEDGTAVDSEDFFQLLEDDTCLMVLEQGQSWSPKSGMLSYGLGREKPKHSKDIARITFDVYKQNPRDLFGSLNVKATFYGLYSMSCDFQGVGPKRVLRELLRWTSSLLQGLGHMLLGISSTLRHVVEGADRWQWHGQRHLHS
Regarding B1, the binding entry in assay [1] is recorded as “no binding”.

B2: CIDEB in pGADT7 (activation-domain fusion) (protein, UniProt Q9UHD4 1-219)
chain: MEYLSALNPSDLLRSVSNISSEFGRRVWTSAPPPQRPFRVCDHKRTIRKGLTAATRQELLAKALETLLLNGVLTLVLEEDGTAVDSEDFFQLLEDDTCLMVLQSGQSWSPTRSGVLSYGLGRERPKHSKDIARFTFDVYKQNPRDLFGSLNVKATFYGLYSMSCDFQGLGPKKVLRELLRWTSTLLQGLGHMLLGISSTLRHAVEGAEQWQQKGRLHSY
Turning to B2, the binding entry is listed as “binds” in assay [2] and “no binding” in assay [3].

B3: Flag-CIDEB (in HCV-Jc1EGFP-infected Huh7.5.1 cells) (protein, UniProt Q9UHD4 1-219)
chain: MEYLSALNPSDLLRSVSNISSEFGRRVWTSAPPPQRPFRVCDHKRTIRKGLTAATRQELLAKALETLLLNGVLTLVLEEDGTAVDSEDFFQLLEDDTCLMVLQSGQSWSPTRSGVLSYGLGRERPKHSKDIARFTFDVYKQNPRDLFGSLNVKATFYGLYSMSCDFQGLGPKKVLRELLRWTSTLLQGLGHMLLGISSTLRHAVEGAEQWQQKGRLHSY
Consider B3, for which, in assay [4], the binding entry is “binds”.

B4: CIDEB (tagged form used in Fig. S2a not shown) (protein, UniProt Q9UHD4 1-219)
chain: MEYLSALNPSDLLRSVSNISSEFGRRVWTSAPPPQRPFRVCDHKRTIRKGLTAATRQELLAKALETLLLNGVLTLVLEEDGTAVDSEDFFQLLEDDTCLMVLQSGQSWSPTRSGVLSYGLGRERPKHSKDIARFTFDVYKQNPRDLFGSLNVKATFYGLYSMSCDFQGLGPKKVLRELLRWTSTLLQGLGHMLLGISSTLRHAVEGAEQWQQKGRLHSY
As for B4, the binding entry in assay [5] is “no binding”.

B5: HA-CIDEB (Homo sapiens), cell-death-inducing DFFA-like effector B (protein, UniProt Q9UHD4 1-219)
chain: MEYLSALNPSDLLRSVSNISSEFGRRVWTSAPPPQRPFRVCDHKRTIRKGLTAATRQELLAKALETLLLNGVLTLVLEEDGTAVDSEDFFQLLEDDTCLMVLQSGQSWSPTRSGVLSYGLGRERPKHSKDIARFTFDVYKQNPRDLFGSLNVKATFYGLYSMSCDFQGLGPKKVLRELLRWTSTLLQGLGHMLLGISSTLRHAVEGAEQWQQKGRLHSY
As for B5, in assay [1], the binding entry was “binds”.
